We go through one molecule from PMC4944119.

In assay [1] the target is T1, gp91^phox, membrane-bound catalytic subunit of NADPH oxidase isoform 2 (NOX2) (mouse (endogenous in FDB muscle of BALB/c mice)) (UniProt Q61093).
T1 sequence: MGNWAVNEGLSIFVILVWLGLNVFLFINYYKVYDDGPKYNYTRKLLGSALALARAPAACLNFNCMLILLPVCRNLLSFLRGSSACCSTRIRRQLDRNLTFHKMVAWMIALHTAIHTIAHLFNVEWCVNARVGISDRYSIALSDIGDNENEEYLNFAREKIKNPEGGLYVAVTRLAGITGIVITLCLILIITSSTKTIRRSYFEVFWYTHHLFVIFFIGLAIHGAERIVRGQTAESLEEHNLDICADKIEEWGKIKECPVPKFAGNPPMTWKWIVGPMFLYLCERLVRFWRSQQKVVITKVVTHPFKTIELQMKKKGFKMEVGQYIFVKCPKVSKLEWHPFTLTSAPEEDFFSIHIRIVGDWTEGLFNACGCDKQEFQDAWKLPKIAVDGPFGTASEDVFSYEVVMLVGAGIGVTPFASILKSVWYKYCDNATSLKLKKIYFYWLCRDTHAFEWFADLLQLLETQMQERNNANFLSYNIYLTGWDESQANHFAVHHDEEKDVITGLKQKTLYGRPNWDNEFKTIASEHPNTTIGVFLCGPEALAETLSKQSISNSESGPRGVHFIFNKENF
Briefly: proximity ligation; Duolink in situ PLA on fixed 10 um cryosections of FDB muscle, primary antibodies against p47phox and gp91phox (proximity <40 nm); mice at rest or exercised, treated with vehicle or apocynin.

In assay [2] the target is T1, gp91^phox, membrane-bound catalytic subunit of NADPH oxidase isoform 2 (NOX2) (mouse (endogenous in FDB muscle of BALB/c mice)). Briefly: co-IP; whole FDB muscle lysates (100 ug protein; 0.1% Nonidet P-40, 140 mM NaCl, pH 7.4) of vehicle-treated mice at rest or after 60 min of swimming exercise; immunoprecipitating antibody 4 h, A/G agarose, immunoblot; which subunit was precipitated is not stated. For orientation: Immunoblotting shows a protein as a band on a membrane.

These are yes or no findings as the source states them, for the method shown. Binding seen in cells or lysates may run through a third protein. Some results given as binding are weak or reduced against the parent protein; the word gives no strength.

B1: p47^phox, cytosolic regulatory subunit of NADPH oxidase isoform 2 (NOX2) (protein, UniProt Q09014 1-390)
chain: MGDTFIRHIALLGFEKRFIPSQHYVYMFLVKWQDLSEKVVYRKFTEIYEFHKMLKEMFPIEAGEIHTENRVIPHLPAPRWFDGQRAAESRQGTLTEYFNGLMGLPVKISRCPHLLDFFKVRPDDLKLPTDSQAKKPETYLVPKDGKNNVADITGPIILQTYRAIADYEKSSGTEMTVATGDVVDVVEKSESGWWFCQMKTKRGWVPASYLEPLDSPDEAEDPDPNYAGEPYVTIKAYAAVEEDEMSLSEGEAIEVIHKLLDGWWVVRKGDITGYFPSMYLQKAGEEITQAQRQIRGRGAPPRRSTIRNAQSIHQRSRKRLSQDTYRRNSVRFLQQRRRPGRPGPLSTDGTKDNPSTPRVKPQPAVPPRPSSDLILHRCTESTKRKLTSAV
Take B1: the binding result in assay [1] and in assay [2] was “binds” in each case.
